Assay results taken from article PMC10710042.
Results are given in words; binding and its absence hold for the method and conditions named. Binding seen in cells or lysates may run through a third protein. Some entries that bind do so weakly or less than the wild type.

Chains of the proteins cited; added tags and fusions are not shown.
UniProt P98175: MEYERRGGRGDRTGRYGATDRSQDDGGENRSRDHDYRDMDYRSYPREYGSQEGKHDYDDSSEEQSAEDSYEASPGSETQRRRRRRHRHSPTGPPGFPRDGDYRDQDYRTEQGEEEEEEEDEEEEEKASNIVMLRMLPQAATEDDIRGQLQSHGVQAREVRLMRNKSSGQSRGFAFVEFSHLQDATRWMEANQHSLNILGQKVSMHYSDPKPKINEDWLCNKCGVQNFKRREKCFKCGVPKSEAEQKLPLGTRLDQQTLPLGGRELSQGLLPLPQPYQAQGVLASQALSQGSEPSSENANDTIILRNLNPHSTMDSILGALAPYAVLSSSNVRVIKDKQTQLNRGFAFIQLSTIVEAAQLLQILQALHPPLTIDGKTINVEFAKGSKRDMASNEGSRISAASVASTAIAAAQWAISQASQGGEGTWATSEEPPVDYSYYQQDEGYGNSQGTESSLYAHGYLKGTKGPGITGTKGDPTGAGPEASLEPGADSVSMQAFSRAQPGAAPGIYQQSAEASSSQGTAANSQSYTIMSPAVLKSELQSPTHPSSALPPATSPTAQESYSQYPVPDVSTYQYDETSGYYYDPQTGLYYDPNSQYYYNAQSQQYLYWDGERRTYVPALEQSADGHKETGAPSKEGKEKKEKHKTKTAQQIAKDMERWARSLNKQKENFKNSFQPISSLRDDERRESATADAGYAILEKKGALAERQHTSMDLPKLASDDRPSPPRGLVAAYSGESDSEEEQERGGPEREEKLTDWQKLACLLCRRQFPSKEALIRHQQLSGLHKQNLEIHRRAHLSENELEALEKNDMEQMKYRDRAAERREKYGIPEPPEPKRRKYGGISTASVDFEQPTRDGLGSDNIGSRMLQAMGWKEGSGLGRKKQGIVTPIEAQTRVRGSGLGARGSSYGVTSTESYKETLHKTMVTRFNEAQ
UniProt P01106: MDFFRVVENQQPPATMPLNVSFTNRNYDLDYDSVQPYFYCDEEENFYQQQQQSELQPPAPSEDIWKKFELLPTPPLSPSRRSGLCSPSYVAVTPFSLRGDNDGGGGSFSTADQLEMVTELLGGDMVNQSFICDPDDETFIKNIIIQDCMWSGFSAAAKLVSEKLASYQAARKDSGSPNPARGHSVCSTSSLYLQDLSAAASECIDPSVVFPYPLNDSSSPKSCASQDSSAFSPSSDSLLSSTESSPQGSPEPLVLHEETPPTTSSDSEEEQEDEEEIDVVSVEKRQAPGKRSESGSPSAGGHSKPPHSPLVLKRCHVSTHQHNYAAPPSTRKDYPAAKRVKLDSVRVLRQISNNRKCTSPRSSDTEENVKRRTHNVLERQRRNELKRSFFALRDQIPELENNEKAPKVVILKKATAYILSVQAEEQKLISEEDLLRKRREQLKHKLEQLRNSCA

How the values were obtained:
Flag-RBM10 [1] = target: Flag-RBM10 (UniProt P98175); assay: co-IP; both proteins overexpressed from plasmids in HCT116 p53-/- (H1299 in one legend); IP with anti-Flag or anti-HA antibodies or beads at 4 °C; immunoblot
His-tagged RBM10 = His-tagged RBM10 (UniProt P98175); assay: pull-down; His-tagged RBM10 from E. coli on Ni-NTA agarose beads as bait, incubated with cell lysates for 1 to 2 h at RT or at 4 °C; washed with 50 mM Tris/HCl pH 8.0, 0.5% NP-40, 1 mM EDTA, 150 mM NaCl, 10% glycerol; immunoblot; only the target purified
Flag-RBM10 [2] = target: Flag-RBM10 (UniProt P98175); assay: co-IP; cell fractionation of transfected HCT116 p53-/- or H1299 cells, then IP with Flag-beads; complexes found in the nuclear fraction
[3] = target: endogenous c-Myc (human (endogenous in HCT116)) (UniProt P01106); assay: co-IP; endogenous proteins in HCT116 p53+/+ and HCT116 p53-/- lysates; IP with anti-c-Myc or anti-RBM10 antibody, IgG as control; immunoblot

| binding (Flag-RBM10 [1]) | binding (His-tagged RBM10) | binding (Flag-RBM10 [2]) | binding [3] | Substance |
| --- | --- | --- | --- | --- |
| binds | binds | binds |  | HA-c-Myc (from UniProt P01106 1-454) |
|  |  |  | binds | endogenous RBM10 (RNA-binding motif protein 10) (from UniProt P98175 1-930) |
|  | binds |  |  | endogenous c-Myc (from UniProt P01106 1-454) |
